Structures can show the parent of a compound that is named as a salt. The list shows a part of the results. Plates or batches differ in their baseline, so values are only roughly comparable.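 The clonal Drosophila S2 line carries Smoothened with a circularly permuted GFP inserted in its cytoplasmic tail, which fluoresces once Hh-driven phosphorylation opens an inhibitory loop. Per-cell fluorescence was read by flow cytometry, scaled to Hh-stimulated untreated cells. Hits were groups of inhibitors sharing pathway targets that shifted fluorescence consistently, not single compounds.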
Test system: Drosophila S2 cl14 SmoIP sensor cells
Assay: normalized SmoIP GFP fluorescence (untreated unstimulated = 0%, untreated Hh-stimulated = 100%); higher = more Smo activation sensor fluorescence
Conditions: compound concentration: 15 uM, 24 h
[1] = stimulation: Hh conditioned medium (+Hh)
[2] = stimulation: mock conditioned medium (-Hh)

Row | Structure (SMILES) | normalized SmoIP GFP fluorescence [1] [%] | normalized SmoIP GFP fluorescence [2] [%]
1 | CC(C)(O)[C@H]1CC[C@@](C)([C@H]2[C@@H](O)C[C@@]3(C)[C@@H]4C[C@H](O[C@@H]5O[C@H](CO)[C@@H](O)[C@H](O)[C@H]5O)[C@H]5C(C)(C)[C@@H](O[C@@H]6OC[C@@H](O)[C@H](O)[C@H]6O)CC[C@@]56C[C@@]46CC[C@]23C)O1 [astragaloside-a] | 127 | -12.7
2 | CC(C)C[C@H](NC(=O)CNC(=O)c1cc(Cl)ccc1Cl)B(O)O | 90 | 38.1
3 | O=C(N/N=C/c1ccc(O)c(O)c1)c1cc2ccccc2cc1O [dynasore] | 138 | 64
4 | C#Cc1cccc(Nc2ncnc3cc4c(cc23)OCCOCCOCCO4)c1 [icotinib] | 113 | 5.59
5 | CC(C)(C)OC(=O)N[C@H]1CCCCC/C=C\[C@@H]2C[C@@]2(C(=O)NS(=O)(=O)C2CC2)NC(=O)[C@@H]2C[C@@H](OC(=O)N3Cc4cccc(F)c4C3)CN2C1=O [Danoprevir] | 126 | 15.9
6 | NC(=O)c1noc([C@H](CCCC2CCCCC2)CC(=O)NO)n1 | 138 | -4.35
7 | O=C1C[C@@H](c2ccc(O)cc2)Oc2cc(O)cc(O)c21 [Naringenin] | 116 | -7.6
8 | COCC(=O)NC/C=C/c1ccc2ncnc(Nc3ccc(Oc4ccc(C)nc4)c(C)c3)c2c1 | 93.8 | 53.9
9 | Cc1ccc(=O)n(-c2ccccc2)c1 [pirfenidone] | 103 | -4.47
10 | COCCOC(=O)C1=C(C)NC(C)=C(C(=O)OC/C=C/c2ccccc2)C1c1cccc([N+](=O)[O-])c1 (stereo not given) [Cilnidipine] | 118 | 37.1
11 | Cc1c(Cn2c(C)nc3c(C(=O)O)cc(N4CCOCC4)cc32)cccc1C(F)(F)F | 165 | 9.08
12 | C[C@H](Nc1ncnc2nc[nH]c12)c1cc2cccc(Cl)c2c(=O)n1-c1ccccc1 | 113 | 35.5
13 | COc1c(C)cnc(Cn2cnc3c(Cl)nc(N)nc32)c1C | 71.5 | 67.1
14 | O=C(/C=C/c1ccc(O)c(O)c1)c1ccc(O)cc1O [butein] | 84.2 | 4.93
15 | CCCS(=O)(=O)Nc1ccc(F)c(C(=O)c2c[nH]c3ncc(Cl)cc23)c1F | 214 | 37.9
16 | C=C[C@@]1(C)CC(=O)[C@]2(O)[C@@]3(C)[C@@H](O)CCC(C)(C)[C@@H]3[C@H](O)[C@H](OC(C)=O)[C@@]2(C)O1 [forskolin] | 148 | 0.154
17 | CN(C)CC(c1ccc(O)cc1)C1(O)CCCCC1 (stereo not given) [desvenlafaxine] | 109 | -0.889
18 | Cc1ccc2c(c1)C(=O)C1(O)CCN(c3ccccc3)C1=N2 (stereo not given) [blebbistatin] | 145 | 43.6
19 | COc1cc2nccc(Oc3ccc(NC(=O)Nc4cc(C)on4)c(Cl)c3)c2cc1OC | 114 | 79.3
20 | CC(C)c1cc(-c2n[nH]c(=O)n2-c2ccc3c(ccn3C)c2)c(O)cc1O [ganetespib-sta-9090] | 133 | 8.46
21 | c1ccc2c(CC3=NCCN3)cccc2c1 [Naphazoline-hydrochloride-Naphcon] | 128 | -11
22 | C/C(=C\C(=O)Nc1ccccc1C(=O)O)c1ccc2ccccc2c1 | 130 | 5.98
23 | CC(C)NC[C@@H](C(=O)N1CCN(c2ncnc3c2[C@H](C)C[C@H]3O)CC1)c1ccc(Cl)cc1 | 84.4 | 4.79
24 | C[C@]12C=CC(=O)N[C@@H]1CC[C@@H]1[C@@H]2CC[C@]2(C)[C@@H](C(=O)Nc3cc(C(F)(F)F)ccc3C(F)(F)F)CC[C@@H]12 [Dutasteride] | 166 | 27.4
25 | COCCc1ccc(OCC(O)CNC(C)C)cc1 (stereo not given) [metoprolol-tartrate] | 131 | -20.3
26 | Cc1onc(-c2ccccc2)c1-c1ccc(S(N)(=O)=O)cc1 [valdecoxib] | 127 | -3.62
27 | COC(=O)N[C@H](C(=O)N[C@@H](Cc1ccccc1)[C@@H](O)CN(Cc1ccc(-c2ccccn2)cc1)NC(=O)[C@@H](NC(=O)OC)C(C)(C)C)C(C)(C)C [Atazanavir] | 187 | 25.6
28 | O=c1ncccn1[C@@H]1O[C@H](CO)[C@@H](O)[C@H]1O [zebularine] | 125 | -0.775
29 | Cc1cn(-c2cc(NC(=O)c3ccc(C)c(Nc4nccc(-c5cccnc5)n4)c3)cc(C(F)(F)F)c2)cn1 [Nilotinib] | 125 | 7.06
30 | COC(=O)N1CCN(Cc2cccc(NC(=O)Nc3ccc(C)nc3)c2F)CC1 | 130 | -16.1

Part of the list above in order of heavy-atom count, smallest number first.
Row | Structure (SMILES) | normalized SmoIP GFP fluorescence [1] [%] | normalized SmoIP GFP fluorescence [2] [%]
9 | Cc1ccc(=O)n(-c2ccccc2)c1 [pirfenidone] | 103 | -4.47
23 | CC(C)NC[C@@H](C(=O)N1CCN(c2ncnc3c2[C@H](C)C[C@H]3O)CC1)c1ccc(Cl)cc1 | 84.4 | 4.79
27 | COC(=O)N[C@H](C(=O)N[C@@H](Cc1ccccc1)[C@@H](O)CN(Cc1ccc(-c2ccccn2)cc1)NC(=O)[C@@H](NC(=O)OC)C(C)(C)C)C(C)(C)C [Atazanavir] | 187 | 25.6

Reference: the supplement of paper PMC5662767
